From paper doi:10.1101/2023.05.19.541433
No constants are given. Whether binding was seen depends on the method and setting. In cells and extracts the contact can be indirect. Some entries that bind do so weakly or less than the wild type. Where a sequence is shown, tags or fusion partners need not be part of it.

Biological target: T1, GFP-S100A11 (S100 Ca2+-binding protein A11) (human) (UniProt P31949)
T1 sequence: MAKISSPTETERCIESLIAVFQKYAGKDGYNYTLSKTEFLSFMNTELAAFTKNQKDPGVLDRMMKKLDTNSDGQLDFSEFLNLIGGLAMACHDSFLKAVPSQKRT
Experiment: co-IP

- binding: binds
B1: Leucine-Glycine-Asparagine repeat protein (LGN) (protein, UniProt P81274 1-684)
chain: MEENLISMREDHSFHVRYRMEASCLELALEGERLCKSGDCRAGVSFFEAAVQVGTEDLKTLSAIYSQLGNAYFYLHDYAKALEYHHHDLTLARTIGDQLGEAKASGNLGNTLKVLGNFDEAIVCCQRHLDISRELNDKVGEARALYNLGNVYHAKGKSFGCPGPQDVGEFPEEVRDALQAAVDFYEENLSLVTALGDRAAQGRAFGNLGNTHYLLGNFRDAVIAHEQRLLIAKEFGDKAAERRAYSNLGNAYIFLGEFETASEYYKKTLLLARQLKDRAVEAQSCYSLGNTYTLLQDYEKAIDYHLKHLAIAQELNDRIGEGRACWSLGNAYTALGNHDQAMHFAEKHLEISREVGDKSGELTARLNLSDLQMVLGLSYSTNNSIMSENTEIDSSLNGVRPKLGRRHSMENMELMKLTPEKVQNWNSEILAKQKPLIAKPSAKLLFVNRLKGKKYKTNSSTKVLQDASNSIDHRIPNSQRKISADTIGDEGFFDLLSRFQSNRMDDQRCCLQEKNCHTASTTTSSTPPKMMLKTSSVPVVSPNTDEFLDLLASSQSRRLDDQRASFSNLPGLRLTQNSQSVLSHLMTNDNKEADEDFFDILVKCQGSRLDDQRCAPPPATTKGPTVPDEDFFSLILRSQGKRMDEQRVLLQRDQNRDTDFGLKDFLQNNALLEFKNSGKKSADH
